Consider 62 compounds from PubChem BioAssay AID493014 (National Center for Advancing Translational Sciences (NCATS), 2011).

This experiment in a line: qHTS Assay to Find Inhibitors of Chronic Active B-Cell Receptor Signaling. Particulars: ABC-DLBCL IkBa-CBG/CBR reporter, luminescence ratio (green luciferase fused to IkBa over red control in TMD8 lymphoma cells), 4 h. The procedure, abridged: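 Cell line TMD8 (human ABC DLBCL), stably expressing tet-inducible CBG68-IkBa fusion and CBR; IMDM/0.5% FBS; cpd up to 46 uM; dox induction, 4 h, 37C/5% CO2; dual luminescence; green/red ratio; MG132 control.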
Background: In qHTS, concentration-response curves come from the screen itself.

The mark [1] stands for this setting: measured here: CBR red luminescence, cell number.
The mark [2] stands for this setting: measured here: IkBa-CBG green luminescence.

The other results are listed elsewhere or left out. Shown are side measurements of this screen, not its main read-out; they come without a call. Most of these compounds were active or inconclusive in the main read-out, so they are no random draw. Words in brackets tell the shape of the fitted curve; partial curves, single points and poor fits give uncertain potencies.

In the case of `CCC(C)NC(=O)c1cc(Cl)ccc1OC` (centres undefined), the AC50 – broadly, the concentration giving half of the maximal activity seen – under setting [1] was 16.4 µM [rising, single point].

`CCOc1ccc(Br)cc1S(=O)(=O)Nc1ccc(C(=O)OCC(=O)N(C)c2ccccc2)cc1`: the AC50 under setting [1] is 8.2 µM [falling, partial curve, poor fit].

Turning to `CCCN1C(=O)/C(=C/c2ccccc2OCc2ccc(C(=O)O)cc2)NC1=S`, under setting [1], the AC50 was 10 µM [falling, partial curve, poor fit].

Regarding `Cc1cc(C(=O)C(=O)N(C)C)c(C)n1-c1ccc(Cl)c(Cl)c1`, the AC50 under setting [1] is 7.08 µM [falling, partial curve, poor fit].

Regarding `CCc1nn2c(N)c(/C=C3\C=Nc4ccccc43)c(=O)nc2s1`, the AC50 under setting [1] is 0.731 µM [rising, partial curve].

As to `CC(C)Nc1nc2nonc2nc1Nc1ccccc1`, the AC50 under setting [1] was 12.6 µM [falling, partial curve, poor fit].

Turning to `Cc1ccccc1C(=O)c1cccn1CC(=O)NCCCN1CCc2ccccc2C1`, the AC50 under setting [1] is 35.5 µM [falling, partial curve, poor fit].

For `Fc1ccc2c(c1)C(c1ccncc1)=NNC(c1ccc(Br)cc1)=N2`, the AC50 under setting [1] was 32.6 µM [falling, single point].

Regarding `Cc1cccc(NC(=S)NC2CCCC2)c1`, the AC50 under setting [1] was 3.66 µM [rising, single point] and the AC50 under setting [2] was 14.6 µM [falling, partial curve, poor fit].

Regarding `O=C(NC1CCCCC1)N1CCN(c2ncccn2)CC1`, the half-maximal activity concentration (AC50) under setting [1] is 16.4 µM [falling, partial curve, poor fit].

As for `CN(Cc1ccsc1)C(=O)CCc1nnc(CCCc2ccccc2)o1`, the AC50 under setting [1] is 1.78 µM [rising, full curve, poor fit].

As for `Cc1noc(C)c1CSc1ccc2ccccc2n1`, the AC50 under setting [2] is 18.4 µM [falling, partial curve, poor fit].

On to `COc1ccc(OC)c(C2C(C#N)=C(N)Oc3c2c(C)nn3-c2cccc(Cl)c2)c1` (centres undefined), for which the concentration at half-maximal activity (AC50) under setting [2] was 11.2 µM [rising, partial curve, poor fit].

Consider `Cc1cc(C(=O)COc2ccccc2[N+](=O)[O-])c(C)n1-c1cccc(S(=O)(=O)N2CCOCC2)c1`, for which, under setting [1], the AC50 is 16.4 µM [falling, partial curve, poor fit].

In the case of `COc1ccc(NC(=O)c2cc(N3C(=O)C4C5CCC(C5)C4C3=O)ccc2Cl)c(OC)c1` (centres undefined), the concentration at half-maximal activity (AC50) under setting [1] is 35.5 µM [falling, partial curve, poor fit].

With `COc1ccc(C2CC(C(F)(F)F)n3ncc(C(=O)NCC4CCCO4)c3N2)cc1OC` (centres undefined), the AC50 under setting [1] was 20 µM [rising, single point].

`O=C(Nc1ccc2c(c1)CCC2)c1cccc(S(=O)(=O)Nc2ccccc2Cl)c1`: the concentration at half-maximal activity (AC50) under setting [1] is 29.1 µM [falling, single point].

In the case of `CC(C)(C)c1ccc(CSc2nnc(-c3ccccn3)n2Cc2ccco2)cc1`, the AC50 under setting [1] was 29.1 µM [falling, single point].

For `O=C(NCc1ccccc1)c1ccc2c(=O)n(CCCN3CCCC3=O)c(=S)[nH]c2c1`, the AC50 under setting [1] was 0.13 µM [rising, full curve, poor fit].

For `CCOC(=O)c1cnc2ccccc2c1Nc1cccc(OC)c1`, the AC50 under setting [1] was 14.1 µM [falling, partial curve, poor fit].

`Cc1sc(NC(=O)CS(=O)(=O)c2ccccc2)c(C(N)=O)c1C`: the AC50 under setting [1] was 18.4 µM [falling, single point].

Turning to `CS(=O)(=O)N(CC(=O)NCCSc1ccc(Cl)cc1)c1ccc2c(c1)OCO2`, under setting [1], the half-maximal activity concentration (AC50) was 2.31 µM [rising, partial curve, poor fit].

Consider `COc1ccc(CNC(=S)NCc2ccc(F)cc2)cc1`, for which the concentration at half-maximal activity (AC50) under setting [1] is 35.5 µM [falling, single point].

Regarding `Cc1onc(-c2ccccc2Cl)c1C(=O)Nc1nc2c(s1)CCCC2`, under setting [1], the AC50 was 11.2 µM [falling, partial curve].

On to `COc1ccc(NC(=O)C(=O)Nc2cccc3cccnc23)cc1OC`, for which the half-maximal activity concentration (AC50) under setting [1] was 0.316 µM [falling, full curve, poor fit].

With `CCN(CC)c1ccc(/C=C2/SC(=O)N(C(C)C)C2=O)o1`, the AC50 under setting [1] was 20.6 µM [falling, partial curve].

For `O=C(O)CSc1cc(C(F)(F)F)nc(-c2ccccn2)n1`, the concentration at half-maximal activity (AC50) under setting [1] was 3.55 µM [falling, partial curve, poor fit].

Regarding `Cn1ncc2c(Nc3ccc(-c4ccccc4)cc3)ncnc21`, the AC50 under setting [1] is 3.98 µM [rising, partial curve].

On to `COCCNC(=O)Cn1cc(/C=N/NC(=O)c2ccc(Oc3ccc(O)cc3)cc2)c2ccccc21`, for which the AC50 under setting [1] is 14.1 µM [falling, single point].

`CCN1CCN(c2cc(-c3ccccc3)nc3cc(-c4cccc(F)c4)nn23)CC1`: the AC50 under setting [1] is 5.17 µM [falling, partial curve, poor fit].

In the case of `Cc1cc(-c2ccccc2)nc(N/N=C/c2ccc(O)cc2)n1`, the AC50 under setting [1] is 18.4 µM [falling, partial curve].

With `N#Cc1ccccc1NC(=O)c1ccc(-c2ccccc2Cl)o1`, the AC50 under setting [1] was 23.1 µM [falling, single point].

As to `CC(C)Cn1c(=O)[nH]c(=O)c2c(C(F)(F)F)cc(-c3ccccc3)nc21`, under setting [1], the concentration at half-maximal activity (AC50) was 6.31 µM [rising, single point].

Take `CCC(=NCc1ccc(Cl)c(Cl)c1)c1nc(-c2ccco2)oc1O`: the AC50 under setting [1] is 13 µM [falling, partial curve].

With `O=C(NCCc1ccccc1F)C(=O)Nc1nccs1`, the half-maximal activity concentration (AC50) under setting [1] is 2.82 µM [falling, full curve, poor fit].

For `CCOc1ccccc1CNC(=O)CCn1ccc2cc(S(=O)(=O)N3CCCCC3)ccc21`, under setting [1], the AC50 was 2.82 µM [rising, partial curve, poor fit].

As to `CN(C)S(=O)(=O)c1ccc(N2CCCC2)c(C(=O)NC(c2ccccc2)c2ccccc2)c1`, the AC50 under setting [1] was 25.9 µM [falling, partial curve, poor fit].

In the case of `Cc1ccc(C(=O)Nc2ccc(O)cc2C(=O)O)cc1C`, under setting [1], the AC50 was 1.03 µM [falling, full curve].

With `Cc1cccc(NC(=O)c2cc3ccccc3oc2=O)c1`, the AC50 under setting [1] was 15.8 µM [falling, single point].

Take `O=C(Nc1nc2ccccc2s1)C1CCN(C(=O)c2ccco2)CC1`: the concentration at half-maximal activity (AC50) under setting [1] was 2 µM [falling, partial curve, poor fit].

Consider `CCN(CC)CCn1c(=N)n(CCOc2ccccc2)c2ccccc21`, for which the AC50 under setting [1] was 18.4 µM [falling, single point].

With `CCOC(=O)c1cc(-c2ccccc2)n(CCC(=O)Nc2nc3c(C)cccc3s2)c1C`, the AC50 under setting [1] was 2.24 µM [falling, partial curve, poor fit].

Turning to `O=C(N1CCCCCC1)N1CCN(S(=O)(=O)N2CCOCC2)CC1`, the AC50 under setting [1] was 13 µM [rising, partial curve, poor fit].

`O=C(Nc1sc2c(c1C(=O)O)CCCCC2)c1ccco1`: under setting [1], the half-maximal activity concentration (AC50) is 1.12 µM [falling, full curve].

`CC(C)NC(=O)NC(=O)COc1c(F)c(F)cc(F)c1F`: the AC50 under setting [1] was 0.82 µM [rising, partial curve, poor fit].

Consider `COCCCNC(=O)c1ccc(Cn2c(=O)c3ccccc3n(Cc3ccccc3C#N)c2=O)cc1`, for which the AC50 under setting [1] was 1.03 µM [rising, full curve, poor fit].

Regarding `COC(=O)N/N=C/c1cn(CC(C)COc2ccccc2)c2ccccc12` (centres undefined), the AC50 under setting [1] was 25.9 µM [falling, single point].

As for `O=C(CC1SC(=O)N(c2ccccc2)C1=O)Nc1cccc2ccccc12` (centres undefined), the AC50 under setting [1] was 20 µM [falling, single point].

With `CN(C(=O)CSc1nc(-c2ccc(C(C)(C)C)cc2)c(C#N)c(=O)[nH]1)C1CCCCC1`, the AC50 under setting [1] was 17.8 µM [rising, single point].

On to `COc1ccc(-c2csc(NC(=O)C3COc4ccccc4O3)n2)cc1OC` (centres undefined), for which the AC50 under setting [1] is 15.8 µM [falling, single point].

On to `CCOC(=O)N1CCC(N2Cc3cccc(C(=O)N4CCN(c5cccc(C)c5C)CC4)c3C2=O)CC1`, for which the AC50 under setting [1] is 8.91 µM [falling, partial curve].

For the compound `NS(=O)(=O)c1ccc(N/N=C/c2cn(-c3ccccc3)nc2-c2ccccc2)c([N+](=O)[O-])c1`, the AC50 under setting [1] is 2.82 µM [rising, partial curve, poor fit].

In the case of `Cc1cc(-c2cccs2)c2c(n1)sc1c(=O)[nH]c(=O)[nH]c12`, the AC50 under setting [1] was 32.6 µM [rising, single point].

`O=C(COC(=O)c1ccccc1Br)Nc1nnc(-c2ccccc2)o1`: the AC50 under setting [1] is 20.6 µM [falling, single point].

Turning to `CCCOC(=O)c1ccc(-c2ccc(C=O)o2)cc1`, under setting [1], the AC50 was 14.6 µM [falling, partial curve].

As for `COc1cc(NC(=O)COC(=O)c2[nH]c(C)c(C(C)=O)c2C)cc(OC)c1`, the concentration at half-maximal activity (AC50) under setting [1] is 18.4 µM [rising, partial curve, poor fit].

With `COC(=O)C(C(=O)OC)c1ccc(-n2cccc2)cc1`, the AC50 under setting [1] was 0.631 µM [rising, full curve, poor fit].

`CCn1c(=O)c(C(=O)Nc2ccccn2)c(O)c2ccccc21`: the concentration at half-maximal activity (AC50) under setting [1] was 0.355 µM [falling, full curve, poor fit].

In the case of `C=C(C)CNC(=S)N/N=C(\C)c1ccc(OC)cc1`, the concentration at half-maximal activity (AC50) is, setting by setting: under setting [1], 9.2 µM [rising, partial curve]; under setting [2], 18.4 µM [falling, single point].

On to `CCOc1ccc(NC(=O)NCc2ccc3c(c2)OCO3)cc1`, for which the AC50 under setting [1] is 7.94 µM [falling, partial curve, poor fit].

Take `O=C(CN1CCOCC1)Nc1nc2ccc([N+](=O)[O-])cc2s1`: the concentration at half-maximal activity (AC50) under setting [1] is 35.5 µM [falling, single point].

On to `CC(=O)c1cccc(NC(=O)COc2ccccc2C(=O)c2cc(C#N)c(=O)n(C3CCCCC3)c2)c1`, for which the AC50 under setting [1] is 1.46 µM [rising, partial curve].
